From PubChem BioAssay AID1439 (NMMLSC, 2008)
In all, about 220,000 compounds went through this assay and about 770 (0.35%) were called active. The shares of active, inactive and inconclusive entries below differ from those in the screen. No stated cut-off is given here; in the data, active means binding response below about 49% or above about 150%; inconclusive means no clear call, values can overlap the other calls; inactive means in between.

Sequences of proteins named here, by UniProt entry; tags and fusion partners are left off.
UniProt P09471, whole entry, looked up: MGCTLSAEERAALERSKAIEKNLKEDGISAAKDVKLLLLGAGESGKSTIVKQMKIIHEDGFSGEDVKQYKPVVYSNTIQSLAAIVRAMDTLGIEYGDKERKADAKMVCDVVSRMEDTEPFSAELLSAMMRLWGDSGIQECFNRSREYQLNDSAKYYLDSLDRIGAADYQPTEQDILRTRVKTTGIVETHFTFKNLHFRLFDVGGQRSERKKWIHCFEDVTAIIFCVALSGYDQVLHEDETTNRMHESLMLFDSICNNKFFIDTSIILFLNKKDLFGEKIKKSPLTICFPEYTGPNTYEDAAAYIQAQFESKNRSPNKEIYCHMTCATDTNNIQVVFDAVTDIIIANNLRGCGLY

What follows are molecules tested against Guanine nucleotide-binding protein G(o) subunit alpha (Homo sapiens) (UniProt P09471) (assay: RGS7-Galphao binding modulators, primary screen, biochemical, multiplexed bead flow cytometry (AID 1439;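 further: fluorescent Galphao held in activated GDP-AlF4 state binding bead-coupled RGS7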)). Settings: at 10 µM, actives lie on both sides.

| SMILES | binding response (% of control) |
| --- | --- |
| CCCCc1n[nH]c(=S)n1Cc1ccc(Cl)cc1 | inactive: 102% |
| COc1cc(C)c(NC(=S)Nc2ccc(Cl)c(Cl)c2)cc1OC | inactive: 97.2% |
| CC(OC(=O)c1ccc2ncsc2c1)C(=O)N1CCCC1 (stereo unspecified) | inconclusive: 84.7% |
| COc1cccc2cc(C(=O)Nc3ccc(S(=O)(=O)NCC4CCCO4)cc3)c(=O)oc12 (stereo unspecified) | inconclusive: 97.1% |
| O=C(CSc1ncnc2scc(-c3ccccc3)c12)Nc1ccc(C(=O)O)cc1 | inconclusive: 73.2% |
| COc1ccccc1/C=C/C(=O)c1ccccc1 | inconclusive: 54.1% |
| CCOc1cc(/C=N/n2c(C)nnc2C)ccc1O | inconclusive: 128% |
| O=C1C2CC=CCC2C(=O)N1Cc1ccccc1Cl (stereo unspecified) | inactive: 99.5% |
| CC1CCN(c2nc(N(C)c3ccccc3)nc(N)c2[N+](=O)[O-])CC1 | inconclusive: 96.1% |
| Cc1cccc(OCc2nnc(SCC(=O)N3CC(=O)Nc4ccccc43)o2)c1 | inactive: 97.8% |
| O=C(Nc1ccc(CN2CCS(=O)(=O)CC2)cc1)c1ccc(C(F)(F)F)cc1 | inconclusive: 105% |
| COc1cc(/C=N/NC(=O)C[n+]2ccccc2)cc(OC)c1OC(C)=O | inconclusive: 55.9% |
| CCN1CCN(S(=O)(=O)c2ccc3c(c2)OCCO3)CC1 | inactive: 98.2% |
| COc1ccccc1NS(=O)(=O)c1ccc(O)c(C(=O)OCC(=O)N2CCc3ccccc32)c1 | inconclusive: 93.1% |
| O=C(Nc1ccc2c(c1)CCC2)c1ccc(Br)s1 | inconclusive: 112% |
| CCOc1ccc(CNC2CCCc3ccccc32)cc1 (stereo unspecified) | inconclusive: 108% |
| Cc1ccc(N2CCN(CC(O)COc3cccc(C)c3)CC2)cc1 (stereo unspecified) | inconclusive: 118% |
| COc1ccccc1C1=NNC(=Nc2cccc(S(=O)(=O)N(C)C)c2)SC1 | inactive: 104% |
| CCOC(=O)c1ccc(NC(=O)CSc2nnc(CNc3ccc(OC)cc3)n2C)cc1 | inactive: 98.6% |
| COc1ccc(/C=C(\C#N)c2n[nH]c(Cn3cncn3)n2)cc1 | inconclusive: 116% |
| CC(C)[C@@H](N)C(=O)N/N=C/c1ccc2nccnc2c1 | inconclusive: 104% |
| O=[N+]([O-])c1ccc2nc(SCc3cn4cccnc4n3)[nH]c2c1 | inconclusive: 126% |
| CCN1CCN(C(CNC(=O)c2ccc3c(c2)OCO3)c2cccnc2)CC1 (stereo unspecified) | inactive: 105% |

In the list so far, 5 have a halogen:

| SMILES | binding response (% of control) |
| --- | --- |
| CCCCc1n[nH]c(=S)n1Cc1ccc(Cl)cc1 | inactive: 102% |
| COc1cc(C)c(NC(=S)Nc2ccc(Cl)c(Cl)c2)cc1OC | inactive: 97.2% |
| O=C1C2CC=CCC2C(=O)N1Cc1ccccc1Cl (stereo unspecified) | inactive: 99.5% |
| O=C(Nc1ccc(CN2CCS(=O)(=O)CC2)cc1)c1ccc(C(F)(F)F)cc1 | inconclusive: 105% |
| O=C(Nc1ccc2c(c1)CCC2)c1ccc(Br)s1 | inconclusive: 112% |

Further records follow.

| SMILES | binding response (% of control) |
| --- | --- |
| COc1ccc(/C=N/NC(=O)c2ccccc2O)cc1Cn1nnc2ccccc21 | inconclusive: 78.5% |
| COc1ccccc1/C=N/N1C(=O)c2cccc3cccc(c23)C1=O | inconclusive: 78.3% |
| CC(C)(C)c1ccccc1NC(=O)NC1CCN(Cc2c(F)cccc2Cl)CC1 | inconclusive: 102% |
| CCOc1ccccc1N1CC(C(=O)Nc2cccc(S(=O)(=O)N3CCCCC3)c2)CC1=O (stereo unspecified) | inconclusive: 96.1% |
| CCN(CC)S(=O)(=O)c1cccc(C(=O)N/N=C/c2ccc(O)c(O)c2O)c1 | active: 31.4% |
| O=C(CN1C(=O)CC(c2ccccc2)=Nc2ccccc21)NCc1ccccc1 | inactive: 103% |
| Cn1c(-c2ccccc2)c(/C=N/NC(=O)c2ccc(O)cc2)c2ccccc21 | inconclusive: 112% |
| Cc1c(C(=O)O)[nH]c2ccc([N+](=O)[O-])cc12 | inconclusive: 95.5% |
| c1ccc(SCc2nc(-c3ccncc3)n[nH]2)nc1 | inconclusive: 97.9% |
| CCOc1ccc2nc(NC(=O)CC3Oc4ccccc4NC3=O)sc2c1 (stereo unspecified) | inconclusive: -55.1% |
| CCN(CC)S(=O)(=O)C1CCS(=O)(=O)C1 (stereo unspecified) | inactive: 84.9% |
| O=C(COC(=O)c1ccc(Cl)cc1O)NCCN1C(=O)CSC1=O | inconclusive: 131% |
| N#C/C(=C(/O)c1cc2ccccc2o1)c1nc2ccccc2s1 | inconclusive: 91.5% |
| COc1ccc(C2=NN(C(=O)CN3CCCCC3)C(c3ccc(C)cc3)C2)cc1 (stereo unspecified) | inconclusive: 115% |
| CCOc1cc(/C=N/NC(=O)c2cccnc2)cc(Br)c1OCC(N)=O | inactive: 106% |
| Cn1c(N)c(C(=O)N/N=C/c2ccccc2)sc1=S | inconclusive: 112% |
| COc1cc2c(cc1OC)CN(C(=S)Nc1c(C)cccc1C)CC2 | inactive: 96.8% |
| C/C(=N\NC(=O)CNC(=O)C1COc2ccccc2O1)c1ccc(Cl)cc1 (stereo unspecified) | inconclusive: 200% |
| O=C(Nc1cc(N2CCCCC2)ncn1)c1ccc(F)cc1 | inconclusive: 116% |
| CN1CCSc2ccc(C(=O)Nc3cccc(F)c3)cc21 | inconclusive: 95% |
| Cn1c(NCc2cc(Br)ccc2O)nc2ccccc21 | inactive: 116% |
| O=C(Cn1cnc2c(nnn2Cc2ccc(F)cc2)c1=O)Nc1ccccc1 | inconclusive: 148% |
| O=C(COc1ccccc1)NN1C(=O)CSC1=S | inconclusive: 109% |

| SMILES | binding response (% of control) |
| --- | --- |
| COc1ccc(N2C(=O)C3NN=C(C(=O)OCc4ccccc4)C3C2=O)cc1 (stereo unspecified) | inactive: 98.8% |
| CN(NC(=O)/C=C/C(=O)O)c1ncc(C(F)(F)F)cc1Cl | inconclusive: 78.6% |
| NS(=O)(=O)c1ccc(CCNC(=O)NC2CCCCC2)cc1 | inconclusive: 144% |
| COc1ccc(CNCc2cccc(OC)c2OC)cc1Br | inconclusive: 84.5% |
| COc1ccc(OC)c(NC(=O)Cn2cc(C=O)c3ccccc32)c1 | inconclusive: 140% |
| COc1ccc(C2=NN(C(=O)CN3CCCCC3)C(c3ccc(OC)cc3)C2)cc1 (stereo unspecified) | inconclusive: 105% |
| Cc1ccc(C(=O)Cn2nc(C(=O)O)c3ccccc3c2=O)cc1C | inconclusive: 234% |
| CC(=O)Nc1ccc(-c2csc(NC(=O)C3CC(=O)N(c4ccc5c(c4)OCCO5)C3)n2)cc1 (stereo unspecified) | inconclusive: 2.22% |
| CCC(CC)NC(=O)c1cccc(Oc2ccccc2)c1 | inactive: 99.7% |
| COc1ccc(S(=O)(=O)N2CCOC2CNC(=O)C(=O)NCc2cccnc2)cc1OC (stereo unspecified) | inconclusive: 97% |
| CC1(c2ccccc2)CC(c2ccccc2)=Nc2ccccc2N1 (stereo unspecified) | inconclusive: 85.6% |
| O=C(CCN1CCN(S(=O)(=O)c2ccc(Cl)cc2)CC1)Nc1ccccc1F | inactive: 98.3% |
| COc1ccc(C(=O)NC(=S)Nc2cccc3nc(C)ccc23)cc1OC | inconclusive: 83.5% |
| C[n+]1cccc(/C=N/Nc2nc(Cl)c(C#N)c(Cl)c2Cl)c1 | inconclusive: 99.7% |
| COC(=O)C1=C(C)N(c2ccccc2)C(=S)NC1c1ccccc1C(F)(F)F (stereo unspecified) | inactive: 98% |
| Cc1ccc(C(=O)Nc2ccccc2NC(=O)c2ccc(C)o2)o1 | inactive: 65% |
| CCOC(=O)CSC1=C(C#N)C(c2ccccc2OC)CC(=O)N1 (stereo unspecified) | inactive: 100% |
| COC(=O)c1cccnc1-n1c(=O)c2cccnc2n(Cc2ccc([N+](=O)[O-])cc2)c1=O | inconclusive: 111% |
| CC1CC(NC2=NCCS2)CC(C)(C)C1 (stereo unspecified) | inconclusive: 123% |
| O=S(=O)(Cc1ccc(Cl)cc1)Nc1ccc2c(c1)OCO2 | inactive: 104% |
| O=C(Oc1c(CN2CCOCC2)cc(Cl)c2cccnc12)c1ccccc1F | inconclusive: 85% |
| COc1ccc(CCNS(=O)(=O)c2cc(C(=O)O)c(Cl)cc2Cl)cc1 | inactive: 106% |
| Cc1nnc(N/N=C/c2c(O)n(-c3cccc(C(F)(F)F)c3)c(=O)c3ccccc23)[nH]c1=O | inconclusive: -20.4% |

Fetched by structure from the entries so far:

| SMILES | binding response (% of control) |
| --- | --- |
| COC(=O)C1=C(C)N(c2ccccc2)C(=S)NC1c1ccccc1C(F)(F)F (stereo unspecified) | inactive: 98% |
| C[n+]1cccc(/C=N/Nc2nc(Cl)c(C#N)c(Cl)c2Cl)c1 | inconclusive: 99.7% |

Additional results.

| SMILES | binding response (% of control) |
| --- | --- |
| Cc1ccc(NC(=O)CN2C(=O)C3C4C=CC(C4)C3C2=O)cc1 (stereo unspecified) | inconclusive: 95.8% |
| Cc1c(NC(=O)Nc2ccc3c(c2)OCO3)c(=O)n(-c2ccccc2)n1C | active: 227% [activator] |
| O=C(Nc1cccc(F)c1)N1CCCC(CNS(=O)(=O)Cc2ccccc2)C1 (stereo unspecified) | inactive: 107% |
| O=C(CCC(=O)Nc1nnc(C2CCCCC2)s1)NCc1ccccc1 | inconclusive: -2.3% |
| CC(C)CSc1oc(-c2ccco2)nc1S(=O)(=O)c1ccccc1 | inconclusive: 108% |
| Cc1cccc(N=Cc2[nH]c3ccc(Br)c(Cl)c3c2O)c1 | active: 153% [activator] |
| O=C(NCc1cccc(Cl)c1)c1cnccn1 | inactive: 105% |
| O=C(C[n+]1cccc(CO)c1)Nc1nc2ccccc2s1 | inactive: 102% |
| COc1ccc(/C=C2/SC(=S)N(c3ccc(S(=O)(=O)Nc4nccs4)cc3)C2=O)cc1 | inconclusive: 64% |
| O=Cc1sc([O-])nc1-[n+]1ccc2ccccc2c1 | inconclusive: 108% |
| O=C(O)COc1ccccc1/C=N/NC(=O)CSc1nnc(SCc2ccc(Cl)cc2)s1 | inconclusive: 88.1% |
| COc1ccc(-c2cc(C(F)(F)F)nc(SCC(=O)NCc3cnn(C)c3C)n2)cc1OC | inactive: 103% |
| C#CCn1c(S(=O)(=O)Cc2ccc(F)cc2)nc(-c2ccccc2)c1-c1ccccc1 | inactive: 94.8% |
| C/C(=N\NC(=O)CN1CCN(Cc2ccccc2)CC1)c1ccncc1 | inconclusive: 99.5% |
| N#Cc1ccc(C23CC4(C2)[C@H](CN(Cc2ccc(-c5ccccc5)cc2)[C@@H]4c2ccccc2)C3c2ccc(C(F)(F)F)cc2)cc1 (stereo partly specified) | inconclusive: 93.6% |
| Cc1sc2ncnc(Nc3ccc(O)cc3)c2c1C | inconclusive: 165% |
| CCOC(=O)c1sc(=S)n(-c2ccc(OC)cc2)c1N | inconclusive: 154% |
| COP(=O)(OC)C(Nc1ccc([N+](=O)[O-])cc1)c1ccccc1 (stereo unspecified) | inconclusive: 211% |
| CCCOC(=O)c1ccc(Cl)c(NC(=O)c2cccnc2)c1 | inactive: 101% |
| C#CC1(NC(=O)NC(C)C)CCCCC1 | inactive: 95.7% |
| CCN(CC)S(=O)(=O)c1ccc(N2CCOCC2)c(NC(=O)c2ccc(C#N)cc2)c1 | inconclusive: 90.3% |
| O=C(NC(=O)c1ccc(C(F)(F)F)cc1)Nc1ccc(-c2cnco2)cc1 | inconclusive: 102% |
